Earlier results, collected in US20190279737A1, “METHOD OF DISCOVERING NEW DRUG CANDIDATE TARGETING DISORDER-TO-ORDER TRANSITION REGION AND APPARATUS FOR DISCOVERING NEW DRUG CANDIDATE” (INDUSTRY-UNIVERSITY COOPERATION FOUNDATION HANYANG …, priority 2016, published 2019).
For at least one compound, name, drawing or mass did not settle the structure.

Amino acid sequences for entries named in this document (tags omitted). Residues count along the entry.
UniProt P01106, 16-454, species assumed: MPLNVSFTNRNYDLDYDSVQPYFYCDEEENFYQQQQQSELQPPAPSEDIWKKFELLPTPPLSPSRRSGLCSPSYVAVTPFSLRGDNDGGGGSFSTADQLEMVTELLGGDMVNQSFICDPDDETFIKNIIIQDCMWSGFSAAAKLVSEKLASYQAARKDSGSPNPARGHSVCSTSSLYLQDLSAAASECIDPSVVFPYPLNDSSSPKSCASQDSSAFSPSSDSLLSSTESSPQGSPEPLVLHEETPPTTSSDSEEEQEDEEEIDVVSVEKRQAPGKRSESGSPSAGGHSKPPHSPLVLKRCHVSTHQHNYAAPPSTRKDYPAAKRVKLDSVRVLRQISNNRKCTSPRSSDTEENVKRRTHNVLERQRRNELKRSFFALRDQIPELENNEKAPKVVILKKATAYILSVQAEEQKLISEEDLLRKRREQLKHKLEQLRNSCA

Biological target: Myc (Homo sapiens, UniProt P01106)
Conditions: Michel and Cuchillo 2012

CCc1ccc(/C=C2/SC(=S)NC2=O)cc1 [10058-F4]
Myc residues with the highest number of interactions: Y402 and K412
